The record followed here is patent US10307463B2 (priority 2003, dated 2019).

Molecules are shown by their SMILES.

The format of this data set is physicochemical. To be noted: on average, in all admixtures, for 60 days.

Turning to `CN1CC[C@]23c4c5ccc(O)c4O[C@H]2[C@@H](O)C=C[C@H]3[C@H]1C5.O=S(=O)(O)O` [morphine sulfate], the “concentration of morphine sulfate, of initial concentration” value is on record as “above 90%”.
